According to paper PMC6411374, “Substrate channeling in oxylipin biosynthesis through a protein complex in the plastid envelope of Arabidopsis thaliana” (Journal of Experimental Botany, 2019):
These are yes or no findings as the source states them, for the method shown. For part of these data: In cells and extracts the contact can be indirect. Some binding calls cover weakened binding; strength is not graded here. For part of these data: Sequences can lack the tags named with a protein.

Key:
[1] = biological target: T1, C-terminal, (His)6-tagged allene oxide synthase [AOS-(His)6] (A. thaliana) (UniProt Q96242); test: pull-down; purified (His)6-tagged bait imported into isolated Arabidopsis chloroplasts (2.5 mM Mg-ATP); mixed envelopes solubilised with […] decyl maltoside; Ni-NTA affinity chromatography, size exclusion on Superose 6 (peak I, ~250 kDa); co-purified bands identified by SDS-PAGE with protein sequencing, LOX2 also by western blot; only the target purified
T1 sequence: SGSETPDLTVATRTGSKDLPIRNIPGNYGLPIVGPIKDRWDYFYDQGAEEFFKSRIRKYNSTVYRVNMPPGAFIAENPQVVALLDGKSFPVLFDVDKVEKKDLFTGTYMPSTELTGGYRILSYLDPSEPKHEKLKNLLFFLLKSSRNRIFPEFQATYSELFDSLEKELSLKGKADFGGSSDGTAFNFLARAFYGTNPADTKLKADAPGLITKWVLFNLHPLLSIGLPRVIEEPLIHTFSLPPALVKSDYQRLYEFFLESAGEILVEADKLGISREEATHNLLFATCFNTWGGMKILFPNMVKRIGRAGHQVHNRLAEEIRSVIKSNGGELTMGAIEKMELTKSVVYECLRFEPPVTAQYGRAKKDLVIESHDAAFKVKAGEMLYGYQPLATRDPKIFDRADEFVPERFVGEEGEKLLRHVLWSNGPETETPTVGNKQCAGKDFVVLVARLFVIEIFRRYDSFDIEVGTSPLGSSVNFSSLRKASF

[2] = biological target: T2, AOS in the split-ubiquitin system (bait AOS-Cub and prey NubG-AOS) (A. thaliana) (UniProt Q96242); test: two-hybrid; split-ubiquitin yeast two-hybrid for membrane-bound proteins (Dualsystems Biotech), yeast strain DSY1; baits fused to Cub, preys to NubG; growth on SD -Leu/-Trp/-His with 5 mM 3-amino-1,2,4-triazole and relative beta-galactosidase activity
T2 sequence: T1 sequence

[3] = biological target: T3, LOX2 bait in the split-ubiquitin system (LOX2-Cub) (A. thaliana) (UniProt P38418); test: as above
T3 sequence: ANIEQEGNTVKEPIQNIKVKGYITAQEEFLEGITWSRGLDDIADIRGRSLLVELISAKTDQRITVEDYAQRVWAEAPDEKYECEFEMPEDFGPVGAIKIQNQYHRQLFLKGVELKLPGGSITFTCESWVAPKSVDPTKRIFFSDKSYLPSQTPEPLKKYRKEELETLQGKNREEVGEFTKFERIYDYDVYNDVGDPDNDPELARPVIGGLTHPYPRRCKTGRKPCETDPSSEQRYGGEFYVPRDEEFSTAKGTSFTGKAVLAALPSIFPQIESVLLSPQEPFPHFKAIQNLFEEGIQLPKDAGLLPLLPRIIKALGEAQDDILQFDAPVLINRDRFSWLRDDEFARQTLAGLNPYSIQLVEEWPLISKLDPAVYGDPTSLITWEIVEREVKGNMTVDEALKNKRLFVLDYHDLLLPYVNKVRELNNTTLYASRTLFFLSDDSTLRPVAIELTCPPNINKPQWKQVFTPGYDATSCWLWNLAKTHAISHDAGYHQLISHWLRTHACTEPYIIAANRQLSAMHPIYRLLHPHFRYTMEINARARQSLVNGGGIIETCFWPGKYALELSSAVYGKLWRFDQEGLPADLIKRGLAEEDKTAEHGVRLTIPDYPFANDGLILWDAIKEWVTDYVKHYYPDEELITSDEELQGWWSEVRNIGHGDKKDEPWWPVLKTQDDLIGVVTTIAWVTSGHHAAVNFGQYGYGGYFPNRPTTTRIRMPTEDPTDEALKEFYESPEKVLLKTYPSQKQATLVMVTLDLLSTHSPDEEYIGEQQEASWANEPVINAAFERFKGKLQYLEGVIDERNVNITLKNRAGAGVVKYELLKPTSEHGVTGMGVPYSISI

B1: lipoxygenase 2 (LOX2), endogenous in the envelope of Arabidopsis chloroplasts (enzyme, UniProt P38418 57-896, looked up)
chain: T3 sequence
notes: lipoxygenase 2 (LOX2), A. thaliana, ~100 kDa band of the plastid envelope; also called 13-lipoxygenase; source: endogenous, envelopes of isolated Arabidopsis chloroplasts
binding [1]: binds

B2: AOC2 prey in the split-ubiquitin system (NubG-AOC2) (enzyme, UniProt Q9LS02 78-253)
chain: PSKVQELSVYEINELDRHSPKILKNAFSLMFGLGDLVPFTNKLYTGDLKKRVGITAGLCVVIEHVPEKKGERFEATYSFYFGDYGHLSVQGPYLTYEDSFLAITGGAGIFEGAYGQVKLQQLVYPTKLFYTFYLKGLANDLPLELTGTPVPPSKDIEPAPEAKALEPSGVISNYTN
binding [2]: binds
binding [3]: binds

B3: AOS in the split-ubiquitin system (bait AOS-Cub and prey NubG-AOS) (enzyme, UniProt Q96242 34-518)
chain: T1 sequence
binding [2]: binds
binding [3]: binds

B4: allene oxide cyclase 2 (AOC2), endogenous in the envelope of Arabidopsis chloroplasts (enzyme, UniProt Q9LS02 78-253, looked up)
chain: B2 chain
notes: allene oxide cyclase 2 (AOC2), A. thaliana, ~72 kDa (SDS-resistant trimer) and ~24 kDa (monomer) bands of the plastid envelope; Found both as trimer and as monomer; source: endogenous, envelopes of isolated Arabidopsis chloroplasts
binding [1]: binds
